From the supplement of paper PMC10849652
The other results are listed elsewhere or left out.

Sequences of proteins named here, by UniProt entry; tags and fusion partners are left off. A change or cut given only in a name is not applied to a line headed by its entry.
UniProt Q8WZ73: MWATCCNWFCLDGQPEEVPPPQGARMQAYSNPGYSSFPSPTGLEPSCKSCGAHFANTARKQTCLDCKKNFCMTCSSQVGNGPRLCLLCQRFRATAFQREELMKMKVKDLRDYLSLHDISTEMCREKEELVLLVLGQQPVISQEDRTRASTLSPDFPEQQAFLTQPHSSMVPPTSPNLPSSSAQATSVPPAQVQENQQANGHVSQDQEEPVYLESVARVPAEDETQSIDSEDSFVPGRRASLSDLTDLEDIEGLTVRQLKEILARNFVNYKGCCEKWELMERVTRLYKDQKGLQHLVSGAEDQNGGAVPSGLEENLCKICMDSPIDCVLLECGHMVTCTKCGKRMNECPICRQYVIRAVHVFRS
UniProt Q9NWS8: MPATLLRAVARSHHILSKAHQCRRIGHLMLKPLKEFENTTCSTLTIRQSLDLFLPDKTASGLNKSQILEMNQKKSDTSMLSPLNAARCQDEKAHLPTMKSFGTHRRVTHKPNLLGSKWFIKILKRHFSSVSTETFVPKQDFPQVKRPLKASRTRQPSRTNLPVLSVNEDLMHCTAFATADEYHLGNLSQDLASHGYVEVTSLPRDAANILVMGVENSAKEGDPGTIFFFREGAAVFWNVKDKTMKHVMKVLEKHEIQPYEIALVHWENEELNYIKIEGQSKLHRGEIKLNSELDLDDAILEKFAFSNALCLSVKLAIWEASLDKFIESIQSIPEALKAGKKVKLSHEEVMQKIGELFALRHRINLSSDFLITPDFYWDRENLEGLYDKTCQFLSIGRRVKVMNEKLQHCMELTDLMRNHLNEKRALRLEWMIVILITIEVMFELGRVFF
UniProt Q9HBH5: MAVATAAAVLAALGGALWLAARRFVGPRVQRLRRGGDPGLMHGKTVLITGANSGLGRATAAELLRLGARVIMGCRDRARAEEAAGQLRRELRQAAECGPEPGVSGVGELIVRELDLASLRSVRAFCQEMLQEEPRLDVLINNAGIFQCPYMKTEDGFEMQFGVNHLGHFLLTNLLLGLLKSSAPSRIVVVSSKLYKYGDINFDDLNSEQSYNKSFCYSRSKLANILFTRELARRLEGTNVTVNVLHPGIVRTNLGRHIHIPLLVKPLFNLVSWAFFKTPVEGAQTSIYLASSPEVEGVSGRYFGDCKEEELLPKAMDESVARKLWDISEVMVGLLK
UniProt Q9H0Z9: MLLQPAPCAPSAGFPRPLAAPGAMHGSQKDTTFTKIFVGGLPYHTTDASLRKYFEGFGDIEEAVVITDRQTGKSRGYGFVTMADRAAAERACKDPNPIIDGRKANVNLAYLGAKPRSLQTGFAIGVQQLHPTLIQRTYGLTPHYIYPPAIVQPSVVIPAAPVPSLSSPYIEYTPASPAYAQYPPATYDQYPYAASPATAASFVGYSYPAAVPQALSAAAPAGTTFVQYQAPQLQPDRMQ
UniProt Q8IXI1, whole entry, looked up: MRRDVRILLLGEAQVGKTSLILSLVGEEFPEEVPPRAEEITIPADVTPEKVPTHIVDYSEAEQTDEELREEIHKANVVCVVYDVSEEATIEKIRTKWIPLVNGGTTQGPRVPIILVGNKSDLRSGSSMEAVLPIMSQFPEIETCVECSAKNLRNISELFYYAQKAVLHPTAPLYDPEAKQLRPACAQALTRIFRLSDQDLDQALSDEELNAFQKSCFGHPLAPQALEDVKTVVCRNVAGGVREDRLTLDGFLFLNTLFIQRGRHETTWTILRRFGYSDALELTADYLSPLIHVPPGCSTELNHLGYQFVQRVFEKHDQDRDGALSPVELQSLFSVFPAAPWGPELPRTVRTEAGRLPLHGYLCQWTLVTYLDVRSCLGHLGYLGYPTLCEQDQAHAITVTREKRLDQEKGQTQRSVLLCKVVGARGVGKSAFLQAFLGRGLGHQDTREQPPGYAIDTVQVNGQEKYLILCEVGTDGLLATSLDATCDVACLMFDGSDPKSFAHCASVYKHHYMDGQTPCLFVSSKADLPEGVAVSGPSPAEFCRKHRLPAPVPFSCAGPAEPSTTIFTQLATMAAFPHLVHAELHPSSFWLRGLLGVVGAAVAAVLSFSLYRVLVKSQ
UniProt P62877, whole entry, looked up: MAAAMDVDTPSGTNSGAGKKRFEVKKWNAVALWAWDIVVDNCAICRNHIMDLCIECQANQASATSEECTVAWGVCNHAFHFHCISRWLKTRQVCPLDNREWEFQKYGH
UniProt Q9P0P0: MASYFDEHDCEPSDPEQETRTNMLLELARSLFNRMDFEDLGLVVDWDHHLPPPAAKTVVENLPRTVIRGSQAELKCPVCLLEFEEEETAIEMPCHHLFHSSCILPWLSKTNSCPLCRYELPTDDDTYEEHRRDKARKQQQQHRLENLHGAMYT
UniProt P22670: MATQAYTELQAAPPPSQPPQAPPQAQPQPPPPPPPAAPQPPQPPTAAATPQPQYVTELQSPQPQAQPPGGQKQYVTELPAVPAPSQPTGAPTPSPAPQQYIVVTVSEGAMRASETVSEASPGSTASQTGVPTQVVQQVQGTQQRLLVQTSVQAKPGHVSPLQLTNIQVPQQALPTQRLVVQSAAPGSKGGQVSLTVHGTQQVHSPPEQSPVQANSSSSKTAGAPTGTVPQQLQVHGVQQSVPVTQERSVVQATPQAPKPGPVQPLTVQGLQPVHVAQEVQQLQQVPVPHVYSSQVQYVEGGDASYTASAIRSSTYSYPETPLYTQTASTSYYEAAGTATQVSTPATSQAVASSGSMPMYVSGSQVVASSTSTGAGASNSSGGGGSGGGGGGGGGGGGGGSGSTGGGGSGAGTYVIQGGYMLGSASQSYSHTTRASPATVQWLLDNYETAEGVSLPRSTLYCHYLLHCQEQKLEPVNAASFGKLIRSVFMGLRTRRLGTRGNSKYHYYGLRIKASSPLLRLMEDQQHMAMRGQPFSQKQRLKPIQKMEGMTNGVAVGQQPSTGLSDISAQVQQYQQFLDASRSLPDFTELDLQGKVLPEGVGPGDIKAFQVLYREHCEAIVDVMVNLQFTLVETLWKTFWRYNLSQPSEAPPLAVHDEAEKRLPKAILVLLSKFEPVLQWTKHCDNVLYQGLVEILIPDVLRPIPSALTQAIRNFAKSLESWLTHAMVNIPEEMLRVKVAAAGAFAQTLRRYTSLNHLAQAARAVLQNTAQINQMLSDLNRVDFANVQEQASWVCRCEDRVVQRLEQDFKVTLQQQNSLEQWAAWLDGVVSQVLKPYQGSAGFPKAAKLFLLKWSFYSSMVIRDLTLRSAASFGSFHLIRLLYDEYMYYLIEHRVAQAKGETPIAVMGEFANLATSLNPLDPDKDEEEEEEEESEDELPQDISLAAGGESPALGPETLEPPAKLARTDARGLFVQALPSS
UniProt Q8TDP1: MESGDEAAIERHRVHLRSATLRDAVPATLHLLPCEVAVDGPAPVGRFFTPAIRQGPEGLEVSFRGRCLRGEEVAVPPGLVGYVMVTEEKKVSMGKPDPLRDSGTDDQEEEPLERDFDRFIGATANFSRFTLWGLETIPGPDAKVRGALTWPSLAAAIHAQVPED
UniProt Q6JBY9, whole entry, looked up: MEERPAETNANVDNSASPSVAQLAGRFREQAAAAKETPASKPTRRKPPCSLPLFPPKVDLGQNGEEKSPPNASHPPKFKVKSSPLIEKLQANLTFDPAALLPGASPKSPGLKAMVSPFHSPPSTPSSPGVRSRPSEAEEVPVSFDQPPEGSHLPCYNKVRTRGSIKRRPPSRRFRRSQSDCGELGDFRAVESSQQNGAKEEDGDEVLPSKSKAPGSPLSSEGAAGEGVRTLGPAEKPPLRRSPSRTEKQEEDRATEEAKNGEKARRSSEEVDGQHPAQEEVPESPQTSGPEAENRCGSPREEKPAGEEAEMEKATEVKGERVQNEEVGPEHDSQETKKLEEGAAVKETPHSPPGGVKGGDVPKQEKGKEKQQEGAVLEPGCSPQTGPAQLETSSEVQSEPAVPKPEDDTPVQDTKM
UniProt Q96PM5: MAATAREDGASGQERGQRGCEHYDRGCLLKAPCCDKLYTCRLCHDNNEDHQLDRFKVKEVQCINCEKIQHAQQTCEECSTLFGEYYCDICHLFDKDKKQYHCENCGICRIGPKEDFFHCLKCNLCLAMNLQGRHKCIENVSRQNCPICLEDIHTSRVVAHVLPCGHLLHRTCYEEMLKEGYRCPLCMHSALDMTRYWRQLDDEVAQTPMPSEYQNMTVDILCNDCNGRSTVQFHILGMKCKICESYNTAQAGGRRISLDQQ
UniProt P62745, whole entry, looked up: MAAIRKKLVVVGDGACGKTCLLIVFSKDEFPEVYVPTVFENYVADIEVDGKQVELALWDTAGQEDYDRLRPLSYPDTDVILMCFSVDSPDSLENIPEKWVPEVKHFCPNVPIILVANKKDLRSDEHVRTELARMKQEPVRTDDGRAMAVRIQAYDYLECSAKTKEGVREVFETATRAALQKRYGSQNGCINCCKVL
UniProt P40937, whole entry, looked up: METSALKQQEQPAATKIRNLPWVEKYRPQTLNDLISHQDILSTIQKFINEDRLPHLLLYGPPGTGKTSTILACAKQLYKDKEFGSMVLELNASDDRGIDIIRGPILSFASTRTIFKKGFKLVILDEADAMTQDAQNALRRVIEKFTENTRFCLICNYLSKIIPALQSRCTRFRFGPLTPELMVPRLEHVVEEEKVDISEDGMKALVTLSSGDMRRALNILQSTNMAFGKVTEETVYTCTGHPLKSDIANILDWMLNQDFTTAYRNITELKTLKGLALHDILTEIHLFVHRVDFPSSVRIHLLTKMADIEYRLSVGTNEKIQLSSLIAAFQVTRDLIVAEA
UniProt Q9Y508: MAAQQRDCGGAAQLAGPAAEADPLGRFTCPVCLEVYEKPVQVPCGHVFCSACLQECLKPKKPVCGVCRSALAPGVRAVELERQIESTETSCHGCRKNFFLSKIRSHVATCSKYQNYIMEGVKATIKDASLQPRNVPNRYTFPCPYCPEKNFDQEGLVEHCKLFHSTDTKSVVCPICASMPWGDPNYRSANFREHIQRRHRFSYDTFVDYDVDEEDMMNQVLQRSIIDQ
UniProt Q9BRS2: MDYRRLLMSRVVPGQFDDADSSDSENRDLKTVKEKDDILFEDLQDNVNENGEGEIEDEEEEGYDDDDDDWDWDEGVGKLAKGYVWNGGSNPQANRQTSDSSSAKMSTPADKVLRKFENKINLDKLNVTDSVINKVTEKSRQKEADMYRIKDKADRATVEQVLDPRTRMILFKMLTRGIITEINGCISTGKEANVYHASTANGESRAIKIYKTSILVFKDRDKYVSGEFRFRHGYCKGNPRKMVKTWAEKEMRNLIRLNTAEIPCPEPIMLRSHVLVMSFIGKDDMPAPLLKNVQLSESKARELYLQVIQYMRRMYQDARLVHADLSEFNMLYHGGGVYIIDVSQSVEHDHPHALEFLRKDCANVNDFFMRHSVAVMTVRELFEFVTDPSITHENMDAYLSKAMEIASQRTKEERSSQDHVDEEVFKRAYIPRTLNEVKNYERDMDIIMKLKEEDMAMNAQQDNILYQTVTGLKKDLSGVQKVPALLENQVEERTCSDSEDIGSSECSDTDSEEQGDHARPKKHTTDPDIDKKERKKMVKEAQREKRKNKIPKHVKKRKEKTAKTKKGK

Assays:
Assay in all cases: log2 fold change, soluble protein after heating vs DMSO (PISA); higher = thermal stabilisation; K562 cells, 10 uM, 30 min; active = over 0.2 and 3.5 SD of the protein, either way, in both replicates (recomputed)
[1] = compound: CN1CCN(CCOc2cc(OC3CCOCC3)c3c(Nc4c(Cl)ccc5c4OCO5)ncnc3c2)CC1 [saracatinib]
How it was run: (§1)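 For each measurement, 10 μM compound was applied for 30 min to K562 cells at 2×10^6 cells/mL. Aliquots were heated for 3 min across 48°C-58°C, pooled, and extracted in PBS with 0.5% NP-40 at 4°C; the supernatant after 21,000xg for 90 min was soluble protein. This was quantified by TMTpro 16plex LC-MS/MS with channel sums equalised, and thermal stability was reported relative to control samples from duplicates, on a log2 fold-change scale.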

[2] = compound: CN1CCN(c2nc(C3=C(c4c[nH]c5ccccc45)C(=O)NC3=O)c3ccccc3n2)CC1 [sotrastaurin]
How it was run: as §1

[3] = compound: CN1CC[C@H](c2c(O)cc(O)c3c(=O)cc(-c4ccccc4Cl)oc23)[C@H](O)C1 [alvocidib]
How it was run: as §1

[4] = compound: CN1CCc2c(c3ccccc3n2Cc2ccc(C(=O)NO)cc2)C1 [Tubastatin A]
How it was run: as §1

[5] = compound: CNC(=O)C1=CC=CC=C1NC2=NC(=NC=C2Cl)NC3=C(C=C(C=C3)N4CCOCC4)OC
How it was run: as §1

[6] = compound: CNC(=O)c1ccc(Nc2ncc(C(F)(F)F)c(NCc3nccnc3N(C)S(C)(=O)=O)n2)cc1 [defactinib]
How it was run: as §1

[7] = compound: CNCc1ccc(-c2[nH]c3cc(F)cc4c3c2CCNC4=O)cc1 [rucaparib]
How it was run: as §1

[8] = compound: CNc1nc(-c2ccc3c(N)n[nH]c3c2)cc(N2C[C@@H](C(=O)NC3CCCCC3)CC[C@H]2C)n1
How it was run: as §1

[9] = compound: COC(=O)N[C@@H](C)CNc1nccc(-c2cn(C(C)C)nc2-c2cc(Cl)cc(NS(C)(=O)=O)c2F)n1 [encorafenib]
How it was run: as §1

[10] = compound: COC(=O)[C@H](CCSC)NC(=O)C1=C(C=C(C=C1)NC[C@H](CS)N)C2=CC=CC=C2
How it was run: as §1

[11] = compound: COC1=CC=C(C=C1)CN2C=CC3=C2C=C(C=C3)C(=O)NO
How it was run: as §1

[12] = compound: CON(C)C(=O)N1N=C(c2cc(F)ccc2F)S[C@@]1(CCCN)c1ccccc1 [filanesib]
How it was run: as §1

[13] = compound: CO[C@H]1C[C@@H]2CC[C@@H](C)[C@@](O)(O2)C(=O)C(=O)N2CCCC[C@H]2C(=O)O[C@H]([C@H](C)C[C@@H]2CC[C@H](n3cnnn3)[C@H](OC)C2)CC(=O)[C@H](C)/C=C(\C)[C@@H](O)[C@@H](OC)C(=O)[C@H](C)C[C@H](C)/C=C/C=C/C=C/1C [zotarolimus]
How it was run: as §1

[14] = compound: COc1cc(C(=O)O)ccc1NC(=O)[C@@H]1N[C@@H](CC(C)(C)C)[C@](C#N)(c2ccc(Cl)cc2F)[C@H]1c1cccc(Cl)c1F [idasanutlin]
How it was run: as §1

[15] = compound: COc1cc(Nc2ncc3c(n2)-c2ccc(Cl)cc2C(c2c(F)cccc2OC)=NC3)ccc1C(=O)O [alisertib]
How it was run: as §1

[16] = compound: COc1cc2nc(-c3cc(F)ccc3O)nc(N[C@@H]3CNC[C@H]3C(C)(C)O)c2cc1OC
How it was run: as §1

[17] = compound: COc1cc2ncnc(Nc3ccc(F)c(Cl)c3)c2cc1OCCCN1CCOCC1 [gefitinib]
How it was run: as §1

[18] = compound: COc1cccc2cc(-c3nc([C@H]4CC[C@H](C(=O)O)CC4)n4ncnc(N)c34)[nH]c12
How it was run: as §1

[19] = compound: CS(=O)(=O)CCNCc1ccc(-c2ccc3ncnc(Nc4ccc(OCc5cccc(F)c5)c(Cl)c4)c3c2)o1 [lapatinib]
How it was run: as §1

[20] = compound: CS(=O)(=O)N1CCN(Cc2cc3nc(-c4cccc5[nH]ncc45)nc(N4CCOCC4)c3s2)CC1 [pictilisib]
How it was run: as §1

Measured: log2 fold change

RFFL (UniProt Q8WZ73)
inactive: [1] 0.13 | [2] -0.04 | [3] 0.011 | [4] -0.042 | [5] -0.087 | [6] -0.232 | [7] 0.077 | [8] 0.024 | [9] 0.226 | [10] 0.064 | [11] 0.004 | [12] -0.036 | [13] -0.085 | [14] -0.164 | [15] 0.066 | [16] -0.061 | [17] 0.067 | [18] -0.139 | [19] 0.119

RMND1 (UniProt Q9NWS8)
inactive: [1] 0.023 | [2] 0.006 | [3] -0.052 | [4] -0.034 | [5] -0.005 | [6] -0.002 | [7] 0.107 | [8] -0.037 | [9] -0.038 | [10] 0.022 | [11] 0.005 | [12] -0.062 | [13] 0.054 | [14] -0.04 | [15] -0.031 | [16] 0.044 | [17] -0.023 | [18] 0.076 | [19] 0.005 | [20] 0.191

RDH14 (UniProt Q9HBH5)
inactive: [1] 0.009 | [2] 0.204 | [3] -0.096 | [4] -0.036 | [5] 0.139 | [6] 0 | [7] 0.026 | [8] 0.207 | [9] -0.049 | [10] -0.021 | [11] 0.012 | [12] -0.07 | [13] 0.203 | [14] 0.309 | [15] -0.138 | [16] 0.057 | [17] 0.169 | [18] 0.028 | [19] 0.175 | [20] 0.282

RBM38 (UniProt Q9H0Z9)
inactive: [1] -0.018 | [2] 0.003 | [3] -0.063 | [4] 0.077 | [5] 0.021 | [6] 0.114 | [7] 0.106 | [8] -0.021 | [9] -0.069 | [10] -0.197 | [11] -0.01 | [12] -0.053 | [13] 0.056 | [14] 0.033 | [15] -0.075 | [16] -0.047 | [17] -0.083 | [18] 0.064 | [19] 0.044 | [20] -0.09

RHOT2 (UniProt Q8IXI1)
inactive: [1] -0.062 | [2] 0.032 | [3] -0.01 | [4] 0.059 | [5] -0.029 | [6] -0.007 | [7] 0.024 | [8] 0.059 | [9] 0.076 | [10] -0.031 | [11] 0.027 | [12] -0.007 | [13] 0.053 | [14] -0.017 | [15] 0.006 | [16] 0.141 | [17] 0.011 | [18] -0.006 | [19] -0.028 | [20] 0.129

RBX1 (UniProt P62877)
inactive: [1] 0.117 | [2] 0.007 | [3] -0.01 | [4] -0.037 | [5] -0.127 | [6] -0.068 | [7] -0.116 | [8] -0.011 | [9] 0.048 | [10] 0.031 | [11] -0.041 | [12] 0.09 | [13] -0.076 | [14] -0.068 | [15] 0.086 | [16] 0.093 | [17] -0.015 | [18] -0.05 | [19] 0.092 | [20] 0.066

RNF181 (UniProt Q9P0P0)
inactive: [1] 0.041 | [2] 0.023 | [3] 0.043 | [4] 0.069 | [5] -0.047 | [6] -0.004 | [7] -0.047 | [8] -0.075 | [9] -0.027 | [10] 0.04 | [11] -0.03 | [12] 0.032 | [13] -0.021 | [14] 0.057 | [15] -0.07 | [16] -0.009 | [17] 0.011 | [18] 0.032 | [19] 0.003 | [20] -0.003

RFX1 (UniProt P22670)
inactive: [1] 0.038 | [2] -0.091 | [3] 0.004 | [4] 0.021 | [5] 0.02 | [6] -0.055 | [7] -0.025 | [8] -0.054 | [9] 0.004 | [10] 0.017 | [11] -0.016 | [12] -0.029 | [13] 0.042 | [14] -0.032 | [15] -0.039 | [16] 0.058 | [17] -0.005 | [18] 0.031 | [19] 0.051 | [20] 0.031

RNASEH2C (UniProt Q8TDP1)
inactive: [1] -0.021 | [2] -0.111 | [3] -0.269 | [4] 0.107 | [5] 0.005 | [6] -0.258 | [7] 0.004 | [8] 0.11 | [9] 0.025 | [10] -0.112 | [11] -0.016 | [12] -0.062 | [13] 0.096 | [14] -0.055 | [15] 0.024 | [16] 0.034 | [17] 0.046 | [18] 0.008 | [19] 0.003 | [20] 0.166

RCSD1 (UniProt Q6JBY9)
inactive: [1] 0.028 | [2] 0.09 | [3] 0.029 | [4] -0.048 | [5] 0.02 | [6] 0.013 | [7] 0.001 | [8] -0.06 | [9] -0.017 | [10] 0.07 | [11] 0.11 | [12] 0.065 | [13] -0.08 | [14] 0.027 | [15] -0.043 | [16] -0.028 | [17] 0.004 | [18] 0.04 | [19] -0.061 | [20] 0.034

RCHY1 (UniProt Q96PM5)
inactive: [1] 0.083 | [2] -0.014 | [3] -0.083 | [4] -0.004 | [5] -0.017 | [6] -0.111 | [7] 0.02 | [8] -0.05 | [9] -0.026 | [10] 0 | [11] 0.043 | [12] 0.035 | [13] -0.025 | [14] -0.021 | [15] -0.01 | [16] 0.021 | [17] -0.027 | [18] 0 | [19] 0.016 | [20] -0.021

RHOB (UniProt P62745)
inactive: [1] 0.118 | [2] -0.038 | [3] -0.008 | [4] -0.041 | [5] 0.013 | [6] 0.265 | [7] 0.041 | [8] -0.236 | [9] -0.01 | [10] 0.184 | [11] 0.35 | [12] -0.024 | [13] 0.014 | [14] 0.135 | [15] 0.042 | [16] -0.088 | [17] -0.026 | [18] -0.051 | [19] -0.005 | [20] 0.058

RFC5 (UniProt P40937)
inactive: [1] 0.03 | [2] 0.003 | [3] -0.028 | [4] 0.002 | [5] -0.029 | [6] -0.028 | [7] 0.005 | [8] -0.007 | [9] 0.007 | [10] -0.008 | [11] -0.027 | [12] -0.061 | [13] 0.026 | [14] -0.084 | [15] -0.026 | [16] 0.05 | [17] -0.027 | [18] 0.029 | [19] 0 | [20] 0.003

RNF114 (UniProt Q9Y508)
inactive: [1] 0.003 | [2] 0.001 | [3] -0.03 | [4] -0.013 | [5] 0.012 | [6] -0.038 | [7] 0.02 | [8] -0.004 | [9] -0.019 | [10] 0.033 | [11] 0.077 | [12] -0.065 | [13] 0.028 | [14] 0.007 | [15] -0.06 | [16] 0.019 | [17] -0.029 | [18] -0.068 | [19] -0.074 | [20] 0.036

2 records picked at random from those above, as already listed:
RCSD1 (UniProt Q6JBY9)
inactive: [1] 0.028 | [2] 0.09 | [3] 0.029 | [4] -0.048 | [5] 0.02 | [6] 0.013 | [7] 0.001 | [8] -0.06 | [9] -0.017 | [10] 0.07 | [11] 0.11 | [12] 0.065 | [13] -0.08 | [14] 0.027 | [15] -0.043 | [16] -0.028 | [17] 0.004 | [18] 0.04 | [19] -0.061 | [20] 0.034

RCHY1 (UniProt Q96PM5)
inactive: [1] 0.083 | [2] -0.014 | [3] -0.083 | [4] -0.004 | [5] -0.017 | [6] -0.111 | [7] 0.02 | [8] -0.05 | [9] -0.026 | [10] 0 | [11] 0.043 | [12] 0.035 | [13] -0.025 | [14] -0.021 | [15] -0.01 | [16] 0.021 | [17] -0.027 | [18] 0 | [19] 0.016 | [20] -0.021

(continued)

RIOK1 (UniProt Q9BRS2)
inactive: [1] 0.023 | [2] 0.043 | [3] 0.076 | [4] -0.022 | [5] -0.024 | [6] 0.017 | [7] 0.022 | [8] -0.043 | [9] -0.02 | [10] 0.046 | [11] -0.036 | [12] 0.047 | [13] -0.064 | [14] 0.008 | [15] -0.041 | [16] 0.039 | [17] -0.002 | [18] 0.04 | [19] 0.006 | [20] 0.007
